Source: patent US20120190612A1, “METHODS OF TREATMENT” (CRC FOR ASTHMA AND AIRWAYS LTD., priority 2009, published 2012)
No constants are given. Whether binding was seen depends on the method and setting. Some entries that bind do so weakly or less than the wild type.

The chains behind the UniProt entries cited, without tags or fusion partners. Residues count along the entry.
UniProt P08648, residues 42-1049: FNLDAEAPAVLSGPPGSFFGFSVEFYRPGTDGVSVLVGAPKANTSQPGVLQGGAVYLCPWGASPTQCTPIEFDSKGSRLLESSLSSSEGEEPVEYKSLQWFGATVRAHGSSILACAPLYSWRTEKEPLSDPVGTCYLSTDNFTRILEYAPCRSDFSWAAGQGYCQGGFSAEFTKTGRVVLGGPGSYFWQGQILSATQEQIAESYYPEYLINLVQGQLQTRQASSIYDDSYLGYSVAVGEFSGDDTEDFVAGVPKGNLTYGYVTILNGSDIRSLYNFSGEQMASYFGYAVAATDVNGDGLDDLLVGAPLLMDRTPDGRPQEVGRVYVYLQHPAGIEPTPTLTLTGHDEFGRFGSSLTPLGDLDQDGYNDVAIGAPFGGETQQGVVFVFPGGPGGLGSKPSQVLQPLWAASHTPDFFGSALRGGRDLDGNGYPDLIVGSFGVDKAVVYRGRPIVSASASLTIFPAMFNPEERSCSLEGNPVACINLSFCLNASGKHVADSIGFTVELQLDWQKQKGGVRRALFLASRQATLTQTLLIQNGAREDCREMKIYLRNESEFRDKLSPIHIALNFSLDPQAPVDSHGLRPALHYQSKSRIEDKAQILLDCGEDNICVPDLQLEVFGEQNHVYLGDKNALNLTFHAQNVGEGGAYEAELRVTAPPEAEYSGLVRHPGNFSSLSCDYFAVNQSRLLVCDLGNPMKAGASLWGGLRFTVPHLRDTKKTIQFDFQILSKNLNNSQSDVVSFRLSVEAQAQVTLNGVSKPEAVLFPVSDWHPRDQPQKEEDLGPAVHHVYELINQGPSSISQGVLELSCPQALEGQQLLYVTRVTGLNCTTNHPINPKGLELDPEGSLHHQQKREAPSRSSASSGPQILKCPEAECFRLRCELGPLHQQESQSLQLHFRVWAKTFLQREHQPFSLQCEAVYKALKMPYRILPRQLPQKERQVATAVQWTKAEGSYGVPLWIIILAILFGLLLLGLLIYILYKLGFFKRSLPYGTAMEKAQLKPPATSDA
UniProt P05556: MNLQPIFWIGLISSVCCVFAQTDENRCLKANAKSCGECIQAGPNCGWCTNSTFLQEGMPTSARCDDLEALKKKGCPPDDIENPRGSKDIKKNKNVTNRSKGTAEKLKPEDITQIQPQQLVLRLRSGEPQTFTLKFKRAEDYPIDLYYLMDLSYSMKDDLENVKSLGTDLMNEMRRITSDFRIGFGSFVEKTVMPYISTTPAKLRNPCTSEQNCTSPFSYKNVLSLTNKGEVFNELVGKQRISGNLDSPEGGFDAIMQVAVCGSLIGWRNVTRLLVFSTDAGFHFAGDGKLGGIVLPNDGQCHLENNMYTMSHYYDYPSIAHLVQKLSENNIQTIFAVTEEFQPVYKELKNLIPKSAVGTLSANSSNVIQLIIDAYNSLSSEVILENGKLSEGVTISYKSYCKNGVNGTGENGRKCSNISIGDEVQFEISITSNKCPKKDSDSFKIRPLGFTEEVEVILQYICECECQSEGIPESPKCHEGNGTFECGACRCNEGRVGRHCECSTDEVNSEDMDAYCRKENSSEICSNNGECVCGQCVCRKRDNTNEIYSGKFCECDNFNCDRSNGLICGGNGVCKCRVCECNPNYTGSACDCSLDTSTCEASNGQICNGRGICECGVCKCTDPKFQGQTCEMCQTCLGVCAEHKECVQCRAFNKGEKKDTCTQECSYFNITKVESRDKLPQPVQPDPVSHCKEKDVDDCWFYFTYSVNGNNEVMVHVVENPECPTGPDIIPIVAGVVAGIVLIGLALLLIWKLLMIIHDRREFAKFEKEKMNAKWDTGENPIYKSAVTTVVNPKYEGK

Columns and labels:
[1] = target: integrin α5 on HMVEC-LLy cells (human) (UniProt P08648); test: HMVEC-LLy cell binding in vitro, integrin identification
[2] = target: integrin β1 on HMVEC-LLy cells (human) (UniProt P05556); test: as above
[3] = target: integrin α5 on HMVEC-LLy cells (human) (UniProt P08648); test: HMVEC-LLy cell attachment with anti-integrin antibodies, CP17 5 µM
[4] = target: integrin β1 on HMVEC-LLy cells (human) (UniProt P05556); test: as above

Measured: binding

B1: peptide CP17 (peptide)
peptide: VCNFASRNDYSYWLSTP
binds: all assays above
